Laboratory results from publication PMC12040169 (PLOS Biology, 2025).
The list shows a part of the results.

Tested on: T1, CTL2-GFP (C. trachomatis L2/434/Bu, GFP-expressing)
T1 construct: L2/434/Bu, GFP-expressing
Set-up: species or system HeLa; Intracellular C. trachomatis growth in HeLa cells, bulk GFP fluorescence relative to DMSO
Conditions: bulk GFP, single well; 28.5 h, 10 µM; inhibitor

Row | Structure (SMILES) | % of control remaining [%]
1 | Cc1cc(C)n(CC2CCCCN2C(=O)COc2cccnc2)n1 (stereo not drawn) [CBK304040] | 105.23
2 | Cc1ccc2c(c1)nc(CNC(=O)NCCCO)n2C [CBK306174] | 104.11
3 | CN(C)CCNc1nc(-c2ccncc2)cnc1N [CBK063580] | 155.868
4 | COc1ccc(-n2[nH]c(C)c(Cc3c(Cl)cccc3Cl)c2=O)cc1 [CBK084521] | 105.014
5 | COc1cccc(C2(NC(=O)c3cnsc3)CCCC2)c1 [CBK283611] | 121.549
6 | CCN(Cc1ccncc1)C(=O)NCc1cc(C)on1 [CBK155122] | 123.131
7 | CC(=O)Nc1ccc(S(=O)(=O)Nc2ccc(S(=O)(=O)Nc3ccc(C)c(C)c3)cc2)cc1 [CBK264643] | 88.0059
8 | CC(C)[C@H](CO)Nc1nccnc1-c1cccs1 [CBK089047] | 164.852
9 | COc1ccc(CN(C)C2CCOCC2)cc1Cn1cncn1 [CBK306728] | 105.948
10 | CN1CCC(CNS(=O)(=O)c2cccc3c2OCC3)CC1=O (stereo not drawn) [CBK305465] | 86.8557
11 | O=C(NC1CC1)c1ccc(-c2cnc3[nH]c(=O)n(-c4ccc5[nH]ccc5c4)c3n2)cc1 [CBK064916] | 188.746
12 | COc1ccc(C[C@@H]2NC(=O)[C@@H]3CN(C(=O)c4ccc(OC)cc4)CCN3C2=O)cc1 [CBK289598] | 133.391
13 | O=C(CNC1Cc2ccccc2C1)Nc1ccc(Cl)cc1C(=O)c1ccccc1Cl [CBK074764] | 83.7879
14 | Cc1c(C(=O)NCc2ccccn2)nnn1-c1cccc(C(F)(F)F)c1 [CBK107395] | 98.5611
15 | Cc1cc(C)c(CNC(=O)C2CC(=O)N(Cc3ccccn3)C2)cn1 (stereo not drawn) [CBK304673] | 136.29
16 | O=C(c1ccc(S(=O)(=O)N2CCCCC2)cc1)N1CCN(CCN2C(=O)c3cccc4cccc(c34)C2=O)CC1 [CBK262536] | 100
17 | CCn1c(C)cc(C(=O)CSc2nnc(N3CCCC3)n2C2CC2)c1C [CBK306035] | 133.324
18 | COc1cc(C(=O)NCc2c(-c3ccccc3)noc2C)cc(OC)c1OC [CBK144097] | 88.5366
19 | O=C1/C(=C/c2cn(Cc3cccc4ccccc34)c3ccccc23)C(O)=NN1c1ccccc1 [CBK264849] | 100
20 | Nc1nc2sc3c(c2cc1C(=O)N1CCOCC1)CCCC3 [CBK022399] | 112.385

Sorted by length of the SMILES (smallest number first): 3 of the compounds above.
Row | Structure (SMILES) | % of control remaining [%]
15 | Cc1cc(C)c(CNC(=O)C2CC(=O)N(Cc3ccccn3)C2)cn1 (stereo not drawn) [CBK304673] | 136.29
4 | COc1ccc(-n2[nH]c(C)c(Cc3c(Cl)cccc3Cl)c2=O)cc1 [CBK084521] | 105.014
7 | CC(=O)Nc1ccc(S(=O)(=O)Nc2ccc(S(=O)(=O)Nc3ccc(C)c(C)c3)cc2)cc1 [CBK264643] | 88.0059

Continuation.

Row | Structure (SMILES) | % of control remaining [%]
21 | COc1ccc(C(=O)N2CCC3(CCN(Cc4ccc(OC(F)(F)F)cc4)C3)C2)cc1OC (stereo not drawn) [CBK132148] | 108.568
22 | Cc1nc(C2CCCN(C(=O)c3cnn(C)c3)C2)c2sccn12 (stereo not drawn) [CBK285236] | 150.404
23 | CC(C)(C)OC(=O)N1CCC[C@]2(CCC(=O)N2)[C@H]1c1cccc(F)c1 [CBK283463] | 154.661
24 | O=C(O)Cn1c2ccc(Br)cc2c2nc3ccccc3nc21 [CBK266416] | 222.165
25 | CC(=O)c1ccc(NC(=O)c2cccc(S(=O)(=O)N3CCCCC3)c2)cc1 [CBK263246] | 100
26 | Cc1ccc(C(=O)Nc2ccc(N3CCCCC3)c(F)c2)c(=O)n1C [CBK281390] | 131.691
27 | O=C(CCCn1ccnc1)NC(Cc1cccs1)c1nccs1 (stereo not drawn) [CBK285094] | 129.478
28 | COc1cccc(C(=O)COC(=O)c2ccc3c(c2)C(=O)N(c2ccc(C(C)=O)cc2)C3=O)c1 [CBK264872] | 100
29 | COc1ccc(-c2cc(C(=O)NCC(F)(F)F)cnc2-c2ccc(Cl)cc2)cn1 [CBK036698] | 109.037
30 | O=S(=O)(Cc1ccc(Cl)cc1)NCCCn1ccnc1 [CBK268372] | 108.882
31 | O=C(Cn1c(=O)n(Cc2cccs2)c2ncccc21)N1CCCC1 [CBK283894] | 151.018
32 | O=[N+]([O-])c1ccc(-c2ccc(/C=N/Nc3nnc4c(n3)[nH]c3ccccc34)o2)cc1 [CBK262029] | 111.328
33 | COCCN1C(=O)C2(CC(=O)N(CCc3scnc3C)C2=O)c2cc(Cl)ccc21 (stereo not drawn) [CBK075321] | 90.8105
34 | O=C(c1ccccc1)N1C[C@@H](c2ccsc2)[C@@H]2CN(Cc3ccccc3)CC[C@@H]21 [CBK285602] | 89.0803
35 | CC(C)[C@@H](CO)Nc1cncc(-c2cccnc2)n1 [CBK065467] | 79.7098
36 | C#CCN(C1CCc2ccccc21)S(=O)(=O)c1cc(C(N)=O)n(C)c1 (stereo not drawn) [CBK304287] | 133.004
37 | O=C(CCN1C(=O)C2C3CCC(C3)C2C1=O)OCC(=O)c1ccc(-c2ccccc2)cc1 (stereo not drawn) [CBK265113] | 162.131
38 | CN(C)CCN1CCN(c2nccnc2-c2cccc(CO)c2)CC1 [CBK037047] | 151.429
39 | c1ccc(CNc2nccn3ccnc23)nc1 [CBK037526] | 148.077
